Measurements: paper PMC6139164
These are yes or no findings as the source states them, for the method shown. In cells and extracts the contact can be indirect. Where a sequence is shown, tags or fusion partners need not be part of it.

The chains behind the UniProt entries cited, without tags or fusion partners.
UniProt P46937: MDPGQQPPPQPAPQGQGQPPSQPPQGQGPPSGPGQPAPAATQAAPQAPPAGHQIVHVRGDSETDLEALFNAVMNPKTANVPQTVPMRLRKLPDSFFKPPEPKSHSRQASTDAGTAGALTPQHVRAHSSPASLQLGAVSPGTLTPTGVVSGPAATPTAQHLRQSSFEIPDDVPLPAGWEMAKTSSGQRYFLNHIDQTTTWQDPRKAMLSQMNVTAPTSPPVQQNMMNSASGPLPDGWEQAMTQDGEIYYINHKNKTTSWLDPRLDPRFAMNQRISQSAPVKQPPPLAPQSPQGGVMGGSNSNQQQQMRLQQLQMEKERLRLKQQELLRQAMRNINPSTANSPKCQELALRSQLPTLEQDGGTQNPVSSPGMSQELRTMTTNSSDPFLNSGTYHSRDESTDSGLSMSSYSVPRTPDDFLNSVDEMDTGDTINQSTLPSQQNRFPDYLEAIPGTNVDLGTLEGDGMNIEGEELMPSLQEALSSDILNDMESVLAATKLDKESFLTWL

Biological target: T1, HA-tagged LIM domain only 3 (LMO3) (UniProt Q8TAP4)
T1 sequence: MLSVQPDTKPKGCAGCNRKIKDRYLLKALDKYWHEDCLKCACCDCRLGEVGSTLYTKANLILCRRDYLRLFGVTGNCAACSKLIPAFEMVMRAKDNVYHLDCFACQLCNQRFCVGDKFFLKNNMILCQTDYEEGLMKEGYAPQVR
Experiment: co-IP; Huh-7 cell lysates transfected with HA-tagged LMO3 or vector control; immunoprecipitation with anti-HA monoclonal antibody or control IgG; immunoblotting with anti-LATS1 or YAP antibodies

Yes Associated Protein (YAP) (from UniProt P46937 1-504)
binding: no binding
